According to article PMC9508819, “Rbp95 binds to 25S rRNA helix H95 and cooperates with the Npa1 complex during early pre-60S particle maturation”:
These are yes or no findings as the source states them, for the method shown. In cells and extracts the contact can be indirect. Here binding means that the protein was enriched with, or labelled near, the bait; the list need not be complete.

Chains of the proteins cited; added tags and fusions are not shown.
UniProt P34241: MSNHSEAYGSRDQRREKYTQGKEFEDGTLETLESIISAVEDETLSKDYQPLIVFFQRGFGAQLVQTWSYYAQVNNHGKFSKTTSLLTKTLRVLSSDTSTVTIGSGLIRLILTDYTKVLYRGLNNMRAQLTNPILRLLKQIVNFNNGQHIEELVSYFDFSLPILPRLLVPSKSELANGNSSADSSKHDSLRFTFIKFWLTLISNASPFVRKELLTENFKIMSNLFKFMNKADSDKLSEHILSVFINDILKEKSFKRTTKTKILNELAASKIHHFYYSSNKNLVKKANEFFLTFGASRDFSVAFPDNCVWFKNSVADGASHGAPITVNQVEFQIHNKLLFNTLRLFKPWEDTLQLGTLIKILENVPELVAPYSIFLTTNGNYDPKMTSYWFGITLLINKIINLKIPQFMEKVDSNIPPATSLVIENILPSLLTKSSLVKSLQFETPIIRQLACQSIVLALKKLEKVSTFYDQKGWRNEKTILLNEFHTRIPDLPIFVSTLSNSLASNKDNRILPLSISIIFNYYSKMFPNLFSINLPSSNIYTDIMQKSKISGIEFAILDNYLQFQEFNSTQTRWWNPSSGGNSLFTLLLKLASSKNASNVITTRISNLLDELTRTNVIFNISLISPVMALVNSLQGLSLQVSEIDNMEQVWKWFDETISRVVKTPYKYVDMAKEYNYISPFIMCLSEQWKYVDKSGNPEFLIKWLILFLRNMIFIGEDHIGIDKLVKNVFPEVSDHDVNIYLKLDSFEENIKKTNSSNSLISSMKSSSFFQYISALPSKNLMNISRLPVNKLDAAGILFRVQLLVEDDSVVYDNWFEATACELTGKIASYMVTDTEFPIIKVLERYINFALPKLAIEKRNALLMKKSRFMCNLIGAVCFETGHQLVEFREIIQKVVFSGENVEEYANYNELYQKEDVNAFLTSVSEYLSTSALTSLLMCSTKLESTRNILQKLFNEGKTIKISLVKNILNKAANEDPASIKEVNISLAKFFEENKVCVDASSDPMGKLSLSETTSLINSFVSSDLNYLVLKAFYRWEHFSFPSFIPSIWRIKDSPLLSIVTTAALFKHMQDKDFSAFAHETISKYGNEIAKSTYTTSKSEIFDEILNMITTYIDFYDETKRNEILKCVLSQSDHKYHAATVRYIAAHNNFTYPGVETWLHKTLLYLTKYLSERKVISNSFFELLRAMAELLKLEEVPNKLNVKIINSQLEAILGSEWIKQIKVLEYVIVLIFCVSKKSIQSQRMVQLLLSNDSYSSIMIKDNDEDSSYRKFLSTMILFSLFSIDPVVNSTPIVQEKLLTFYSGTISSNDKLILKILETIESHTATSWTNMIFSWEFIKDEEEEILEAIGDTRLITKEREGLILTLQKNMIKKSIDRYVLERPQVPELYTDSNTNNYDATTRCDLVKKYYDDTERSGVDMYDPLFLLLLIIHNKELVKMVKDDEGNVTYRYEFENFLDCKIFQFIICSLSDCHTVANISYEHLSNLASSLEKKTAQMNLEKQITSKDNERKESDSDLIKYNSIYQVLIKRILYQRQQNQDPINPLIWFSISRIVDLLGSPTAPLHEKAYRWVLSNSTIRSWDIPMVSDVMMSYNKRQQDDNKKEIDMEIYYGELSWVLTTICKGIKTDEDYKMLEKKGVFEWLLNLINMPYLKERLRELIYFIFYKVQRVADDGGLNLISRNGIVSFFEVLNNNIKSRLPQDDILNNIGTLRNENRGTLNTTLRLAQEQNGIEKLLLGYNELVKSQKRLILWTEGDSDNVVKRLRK

B1: Npa2 (protein, UniProt P47108 1-1174)
chain: MGDLTEELSIPDNAQDLSKLLRSTSTKPHQIAEIVSKFDKLETYFPKKEIFVLDLLIDRLNNGNLDDFKTSEHTWIIFTRLLDAINDPISIKKLLKKLKTVPVMIRTFFLWPKDKLLTRSVSFIKAFFAINDYLIVNFSVEESFQLLEHAINGLSSCPTTDFALSYLQDACNLTHVDNITTTDNKIATCYCKHMLLPSLRYFAQTKNSASSNQSFIRLSHFMGKFLLQPRIDYMKLNKKFVQENASEITDDMAYYYFATFVTFLSKDNFAQLEVIFTILGAKKPSLECRFLNLLSESKKTVSQEFLEALLLEMLASTDESGVLSLIPIILKLDIEVAIKHIFRLLELIQLENLNDPLFSSHIWDLIIQSHANARELSDFFAKINEYCSRKGPDSYFLINHPAYVKSITKQLFTLSSLQWKNLLQALLDQVNHDSTNRVPLYLIRICLEGLSEGASRATLDEVKPILSQVFTLESFNNSLQWDLKYHIMEVYDDIVPAEELEKIDYVLSSNIFDTTSADVEELFFYCFKLREYISFDLSDAKKKFMRHFEILDEERKSNLSYSVVSKFATLVNNNFTREQISSLIDSLLLNSTNLSSLLKNDDIFEETNITYALINKLASSYHQTFALEALIQIPIQCINKNVRVALINNLTCESFCLDSATRECLLHLLSSPTFKSNIETNFYELCEKTIMSPEMAISETGDEKKEIEDKISIFEKVWTNHLSQAKEPVSEKFLESGYDIVKQSMSLSNGDSKLIIAGFTIAKFLKPDNKHRDIQGMAISYAVKILENYSENFESETIPLFRISMSTLYKIITTGQGDISKHKSRILDIFSKIMLRYHSKKVYHAPEEQEMFLVHSLLTENKLEYIFAEYLNIEHTDKCDSALGFCLEESLKQGPDAFNRLLWNSAKSFSTISQPCAEKFVRVFIIMSKRIARDNNLGHHLFVIALLEAYTYCDIEKFGYKSYLLLFNAIKEFLVSKPWLFSQYCIEMLLPFCLKTLAFIVNHESTDEINEGFINIIEVIDHMLLVHRFKFSNRHHLFNSVLCQILEIIAIHDGTLCANSADAVARLITNYCEPYNVSNAQNGQKNNLSSKISLIKQSIRKNVLVVLTKYIQLSITTQFSLNIKKSLQPGIHAIFDILSQNELNQLNAFLDTPGKQYFKALYLQYKKVGKWRED
B2: Dbp7 (enzyme, UniProt P36120 1-742)
chain: MSDEDSMLLNFTTNEDTAGSSYKQAAKVTGGRWKDRRRMKMKLEGKTVSRKRKANTTGDEGIIPGRGENSIKKLHKESSYSSEEQEKYKGRNAHNTQGRTLPADSQFVSSLFTSNREITTAVNTNIHDENVAINPSNAPLKGDQFASLGVSSLLVSHLEQKMRIKKPTSIQKQAIPQIIGNAGKNDFFIHAQTGSGKTLSYLLPIISTILNMDTHVDRTSGAFALVIAPTRELASQIYHVCSTLVSCCHYLVPCLLIGGERKKSEKARLRKGCNFIIGTPGRVLDHLQNTKVIKEQLSQSLRYIVLDEGDKLMELGFDETISEIIKIVHDIPINSEKFPKLPHKLVHMLCSATLTDGVNRLRNVALKDYKLISNGTKKDSDIVTVAPDQLLQRITIVPPKLRLVTLAATLNNITKDFIASGQQSKTLRTIVFVSCSDSVEFHYDAFSGSDGHHKNLTGDSVRLLTKGNTMFPCFSDSRDPDVVIYKLHGSLSQQMRTSTLQHFARDNEATKGKHLIMFCTDVASRGLDLPHVGSVIELDPPFAVEDHLHRVGRTARAGEKGESLLFLLPGEEEKYMDYIQPYHPMGWELLKFDKEILMPAFKDVNVNRNDKFIRKDEKSSKNKDVGDKEYEWDTNATTWHLNIERRVVGDSAFKNLAVKGFISHVRAYATHISQEKKFFNVKFLHLGHLAKSFGLRERPKAMGLQSSKDGNSEKKPTKENSKNKMFRMARMAEKQIASEFNY
B3: Nsa2 (protein, UniProt P40078 1-261)
chain: MPQNDYIERHIKQHGKRLDHEERKRKREARESHKISERAQKLTGWKGKQFAKKRYAEKVSMRKKIKAHEQSKVKGSSKPLDTDGDALPTYLLDREQNNTAKAISSSIKQKRLEKADKFSVPLPKVRGISEEEMFKVIKTGKSRSKSWKRMITKHTFVGEGFTRRPVKMERIIRPSALRQKKANVTHPELGVTVFLPILAVKKNPQSPMYTQLGVLTKGTIIEVNVSELGMVTAGGKVVWGKYAQVTNEPDRDGCVNAVLLV
B4: Rrp12 (protein, UniProt Q12754 1-1228)
chain: MDQDKVAFLLELEDKLAKIRSQVNSKLENQKHIAIILTAVEENIAGQATNDVSKNIVNYIISFMSLLDQAVDPSTHEIKDIQLASSSTYLLDLIFHYSPKVLLRSKFSEILTKIAPCITAEKANAPLIRAAIGCLESLLIAQDAQAWNNTYDLNVTPKRGLQGILELSLDVRPKVRKRALDAVHAVLLNPPVAPTAEHVAAVFVADFCDKQLAGILNDLSNLSNKQLKAQKTKEDINASVMRSLRLITSVVSTGQWPSSQIEPLCDVLLGVTKSSEQYLVSASFECFESMFKTMAETTISSGLAENKYLRVLDTIFALKPSNVDTLLTKSWIAVVIKGMSTYATHQPLKALRKIPGVFHIMCTYLASETPEVYQAASQCLISILSESVKDDLLLYTPSVDEKVFKNVDEIISQIAKTFIDFLSIRYSHCSREILKILVAAFNKFRYRSNPHFLKSLKIVDTWRVNEEQFMDLRNEIELVIGASISAMGPEMILAEAPLNLDNPSSERPGRAWLLPLIRDYTKNANLATFQNELAPYIKSFQSKFDKVPEESIQLRVFQTIVDQIWSTLPRFCELPMDLRESFTDEFASELSSLLYSEVELRTTICHALKVLAESNVSYAEESSSHNVLLLQRFPISEAQKNIEYLSTKSTNLLAVLFNVYTQTTPNARSYILETIDQYLKITSKEDLEKTFNNVCGLLKNSMNEESSGNVNKEKKKPQLTATLLDLIICMITYLPVSSYSALFSMFSLTVNSADALIQKRAYRIITKLSELKSGSTAVAQFISDIENVMVDSASSVQTSAKAARLTAIKTIVELLPLDHLDFIVRTVAEVILSTKDVNEKSRETAFDTLICMGRKMNEPNGIIKLFQIPGYDPTTPDQSSSISEFFKIISAGLIGESQHMVSSSITGYACLVFEFKNELDSGILMDIYDTIELYLTSNSREIVKSAIGFTKVCVLGLPEELMRPKVPELLLKLLRWSHEHTGHFKAKVKHIIERLIRRFGYDYIEANFPEEDRRLLTNIRKMRNRNKRKDEEVTTGVSDVAATKGSRFMSAFDEAVYGSDEENDNGSDQEENVAGGKMKNGAKQFIVESGDNPLDLLDSQTLAHISSTRPKKFNKNQNRARFNDDAFNFDSEGKLVVKGQPKPSTNVDDPLSAVTSGINAYLEAVKSGPVRGQRNKLKFRKNGKDSDEFGDDDDGEKDSRLMRGRVNQGNKIGKHNKKGPKFKSRKKL
B5: Nop6 (protein, UniProt Q07623 1-225)
chain: MGSEEDKKLTKKQLKAQQFRKSKEEKDQEKDVKKEQAPEGKRPNSAAGNDGEEPVKKKRKTRRGRGGKGKNGKKGNRFIVFVGSLPRDITAVELQNHFKNSSPDQIRLRADKGIAFLEFDADKDRTGIQRRMDIALLQHGTLLKEKKINVELTVGGGGNSQERLEKLKNKNIKLDEERKERLTKMINDGNQKKIAKTTATAAQTSGTDNKPVPAGIHPDRAKLLK
B6: Dhr2 (enzyme, UniProt P36009 1-735)
chain: MAANSNSRVASNHTSKKQKVRRNIHPFTNNTRIKRASKIVKFNDSGEGDHVSDQRSNKENVLTYKSLKSRASDLLKMRETLPVYQHKREIMSYIESNPVTVLIGETGSGKSTQIPQFVLEKLYDTKKHGSIAVTQPRRVAAINLATRVAQEHGCKLGEQVGYSVRFDNTTTTRTRLKYLTDGMLLRELMMNSDLREYSVIVIDEAHERTVLTDLILGFLKSLIQGPRPDLRIIVMSATLQAEKFSEFFNNAPILFVEGRKFDVKQYYLKAPTDDIVDAVIRCCIQINQGEELGDILCFLPGQEEIDKAVTIMEKIAKYVSDEAPVPLIVPYPLYAALPAVQQSLVFAPIKGFKRKVVFSTNIAETSVTISGVKFVVDSGLRKVKVWRHQLGLATLLTVPISQASAMQRSGRAGRESEGKSFRLYCESDYVKLPKQSEPEIARSDVTSPVLMLKRYGVDDLLNWTWFENPGKEAIVMGLQELYELGALDTRGKITKRGQQMALLPLQPHLSSVLIKASEVGCLSQVIDIVSCLSVENLLLNPSPEERDEVNERRLSLCNAGKRYGDLIMLKELFDIYFYELGKSQDASSERNDWCKGLCISIRGFKNVIRVRDQLRVYCKRLFSSISEEDEESKKIGEDGELISKILKCFLTGFIKNTAIGMPDRSYRTVSTGEPISIHPSSMLFMNKSCPGIMYTEYVFTTKGYARNVSRIELSWLQEVVTNAAAVAKQKVSDSK

Legend:
[1] = target: T1, Noc2-TAP (S. cerevisiae) (UniProt P39744); test: affinity purification with mass spectrometry; tandem-affinity purification from yeast lysate, elution from Calmodulin Sepharose with 0.8% ammonium hydroxide; label-free semi-quantitative LC-MS/MS (LFQ, MaxQuant); for Figure 8A, B from wild-type and Δrbp95 strains
T1 sequence: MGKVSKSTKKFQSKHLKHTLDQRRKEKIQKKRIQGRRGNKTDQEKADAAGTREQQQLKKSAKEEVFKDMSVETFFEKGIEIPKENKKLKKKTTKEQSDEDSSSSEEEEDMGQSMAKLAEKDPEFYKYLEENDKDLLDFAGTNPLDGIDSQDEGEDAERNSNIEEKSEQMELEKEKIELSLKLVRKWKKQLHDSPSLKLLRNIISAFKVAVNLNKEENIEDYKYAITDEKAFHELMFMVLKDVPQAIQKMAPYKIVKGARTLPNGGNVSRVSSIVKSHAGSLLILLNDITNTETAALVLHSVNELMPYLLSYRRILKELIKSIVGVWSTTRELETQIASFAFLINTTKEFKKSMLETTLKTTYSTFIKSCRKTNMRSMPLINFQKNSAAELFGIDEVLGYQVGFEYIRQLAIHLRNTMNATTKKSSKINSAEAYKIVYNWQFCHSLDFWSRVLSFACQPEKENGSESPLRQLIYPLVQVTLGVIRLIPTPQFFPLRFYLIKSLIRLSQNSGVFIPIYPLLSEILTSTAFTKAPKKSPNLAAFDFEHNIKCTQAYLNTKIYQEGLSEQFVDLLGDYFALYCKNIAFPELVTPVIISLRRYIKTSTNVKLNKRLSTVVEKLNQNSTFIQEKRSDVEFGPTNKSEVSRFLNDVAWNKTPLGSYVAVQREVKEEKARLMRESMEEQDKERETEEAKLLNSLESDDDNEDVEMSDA

[2] = target: T2, Rbp95-TAP (S. cerevisiae) (UniProt P25617); test: as above
T2 sequence: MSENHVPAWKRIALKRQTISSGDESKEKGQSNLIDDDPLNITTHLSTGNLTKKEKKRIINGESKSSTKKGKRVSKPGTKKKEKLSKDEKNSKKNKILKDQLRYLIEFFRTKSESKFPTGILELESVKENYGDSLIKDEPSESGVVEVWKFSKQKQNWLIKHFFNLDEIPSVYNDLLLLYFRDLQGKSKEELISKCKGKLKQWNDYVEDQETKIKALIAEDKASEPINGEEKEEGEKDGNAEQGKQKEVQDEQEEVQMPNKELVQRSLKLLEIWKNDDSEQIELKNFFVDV

[3] = target: T3, Rbp95-TurboID (S. cerevisiae) (UniProt P25617); test: proximity labelling; TurboID: C-terminally TurboID-tagged bait from the CUP1 promoter in yeast, 500 uM copper sulfate and biotin for 1 h; biotinylated proteins purified on streptavidin agarose, LC-MS/MS; enrichment against NLS-GFP-TurboID control
T3 sequence: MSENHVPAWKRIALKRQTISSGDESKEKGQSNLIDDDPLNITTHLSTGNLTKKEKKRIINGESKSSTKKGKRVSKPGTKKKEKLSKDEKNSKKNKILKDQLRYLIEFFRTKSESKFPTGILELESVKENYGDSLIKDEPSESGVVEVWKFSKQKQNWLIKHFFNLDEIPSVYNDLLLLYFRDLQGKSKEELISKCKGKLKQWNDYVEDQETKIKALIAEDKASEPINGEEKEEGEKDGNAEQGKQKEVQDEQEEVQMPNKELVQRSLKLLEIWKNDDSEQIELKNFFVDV

Molecule	binding [1]	binding [2]	binding [3]
Npa1 (from UniProt P34241 1-1764)	binds	binds	binds
B1	–	binds	binds
B2	binds	binds	binds
B3	–	binds	binds
B4	–	–	binds
B5	–	–	binds
B6	–	–	binds
